Paper PMC11649694
Results from cells or extracts need not show a direct contact. For some assays here: A negative result means that nothing was seen under these conditions. For some assays here: The exact form of at least one protein or probe is not confirmed. For some assays here: At least one verdict was read from the data and is not stated in words by the source. For some assays here: The comparison behind a weaker result is the experiment's own reference, which may not be listed here.

Chains of the proteins cited; added tags and fusions are not shown.
UniProt P10074, whole entry, stated change not applied: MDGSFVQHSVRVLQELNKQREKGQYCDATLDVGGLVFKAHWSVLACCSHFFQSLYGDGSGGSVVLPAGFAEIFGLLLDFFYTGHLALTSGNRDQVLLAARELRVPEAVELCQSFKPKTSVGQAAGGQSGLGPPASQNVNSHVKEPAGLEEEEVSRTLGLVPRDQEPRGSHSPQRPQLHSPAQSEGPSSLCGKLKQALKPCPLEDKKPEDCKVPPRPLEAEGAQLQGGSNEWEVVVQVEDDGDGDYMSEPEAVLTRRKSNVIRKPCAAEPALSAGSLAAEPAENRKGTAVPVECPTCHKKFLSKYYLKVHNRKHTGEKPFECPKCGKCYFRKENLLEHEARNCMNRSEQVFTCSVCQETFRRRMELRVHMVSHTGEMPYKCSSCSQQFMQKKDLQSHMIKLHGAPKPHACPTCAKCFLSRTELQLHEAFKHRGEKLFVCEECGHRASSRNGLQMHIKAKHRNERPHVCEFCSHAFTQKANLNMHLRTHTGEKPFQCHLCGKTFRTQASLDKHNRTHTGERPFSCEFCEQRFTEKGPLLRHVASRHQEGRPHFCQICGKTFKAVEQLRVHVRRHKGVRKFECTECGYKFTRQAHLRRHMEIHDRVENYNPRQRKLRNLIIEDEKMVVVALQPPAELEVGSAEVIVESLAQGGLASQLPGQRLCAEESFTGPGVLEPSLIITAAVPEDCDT
UniProt P10074, whole entry R611A/R614A: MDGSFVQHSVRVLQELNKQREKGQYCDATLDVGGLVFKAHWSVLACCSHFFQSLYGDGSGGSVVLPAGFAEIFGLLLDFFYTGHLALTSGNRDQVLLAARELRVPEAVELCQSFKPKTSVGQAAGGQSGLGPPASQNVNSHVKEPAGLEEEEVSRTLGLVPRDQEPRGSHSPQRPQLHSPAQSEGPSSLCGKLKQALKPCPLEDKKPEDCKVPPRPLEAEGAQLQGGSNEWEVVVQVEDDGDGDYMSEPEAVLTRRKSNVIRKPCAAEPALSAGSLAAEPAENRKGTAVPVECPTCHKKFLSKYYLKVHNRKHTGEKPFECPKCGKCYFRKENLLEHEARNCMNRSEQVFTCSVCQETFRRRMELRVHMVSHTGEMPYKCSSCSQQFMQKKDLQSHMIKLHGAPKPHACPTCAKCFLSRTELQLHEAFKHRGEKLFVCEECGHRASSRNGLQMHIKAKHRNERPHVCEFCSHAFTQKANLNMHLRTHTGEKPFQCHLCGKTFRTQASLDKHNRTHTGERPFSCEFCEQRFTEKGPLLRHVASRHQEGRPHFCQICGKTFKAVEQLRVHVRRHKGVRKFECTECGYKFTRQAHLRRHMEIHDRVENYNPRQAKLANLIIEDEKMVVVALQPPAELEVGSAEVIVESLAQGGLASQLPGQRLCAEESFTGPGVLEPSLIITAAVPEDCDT
UniProt P10074, whole entry R614A: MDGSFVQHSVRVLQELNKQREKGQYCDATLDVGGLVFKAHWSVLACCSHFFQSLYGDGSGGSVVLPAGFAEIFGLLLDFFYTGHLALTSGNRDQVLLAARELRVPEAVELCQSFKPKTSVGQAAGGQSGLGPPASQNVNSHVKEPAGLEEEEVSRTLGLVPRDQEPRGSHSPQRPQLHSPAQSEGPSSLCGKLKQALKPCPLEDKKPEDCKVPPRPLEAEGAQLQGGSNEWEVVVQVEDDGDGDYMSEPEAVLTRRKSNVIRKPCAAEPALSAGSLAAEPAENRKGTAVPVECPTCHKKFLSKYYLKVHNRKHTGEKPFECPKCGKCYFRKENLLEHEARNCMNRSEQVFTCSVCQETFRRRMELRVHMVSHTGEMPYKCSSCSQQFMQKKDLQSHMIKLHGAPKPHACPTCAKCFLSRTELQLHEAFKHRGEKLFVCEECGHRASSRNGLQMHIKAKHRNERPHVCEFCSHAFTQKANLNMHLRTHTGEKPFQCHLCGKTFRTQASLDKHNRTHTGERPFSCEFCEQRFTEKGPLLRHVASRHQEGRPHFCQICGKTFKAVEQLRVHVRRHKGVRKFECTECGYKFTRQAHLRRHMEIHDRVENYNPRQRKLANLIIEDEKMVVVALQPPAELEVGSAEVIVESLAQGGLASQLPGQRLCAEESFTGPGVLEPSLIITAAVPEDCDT
UniProt P10074, whole entry R611A: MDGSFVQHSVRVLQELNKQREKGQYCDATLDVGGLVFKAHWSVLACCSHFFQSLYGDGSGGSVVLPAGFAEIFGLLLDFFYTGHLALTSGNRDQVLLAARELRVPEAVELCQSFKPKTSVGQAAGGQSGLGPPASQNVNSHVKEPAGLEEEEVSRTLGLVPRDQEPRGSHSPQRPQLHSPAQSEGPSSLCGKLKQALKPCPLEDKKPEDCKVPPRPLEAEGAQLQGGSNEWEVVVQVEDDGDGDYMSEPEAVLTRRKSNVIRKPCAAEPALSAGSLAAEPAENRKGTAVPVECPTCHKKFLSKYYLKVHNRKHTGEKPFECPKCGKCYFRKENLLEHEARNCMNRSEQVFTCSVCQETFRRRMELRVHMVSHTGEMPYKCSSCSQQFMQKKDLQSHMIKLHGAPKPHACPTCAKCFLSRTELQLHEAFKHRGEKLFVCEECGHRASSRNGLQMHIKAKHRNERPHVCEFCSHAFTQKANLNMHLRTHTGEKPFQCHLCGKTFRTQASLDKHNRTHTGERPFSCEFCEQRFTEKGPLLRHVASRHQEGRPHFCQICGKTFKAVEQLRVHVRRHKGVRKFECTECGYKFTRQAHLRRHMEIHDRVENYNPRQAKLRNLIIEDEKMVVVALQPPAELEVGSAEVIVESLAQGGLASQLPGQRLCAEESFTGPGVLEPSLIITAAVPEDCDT

Key:
Assay in all cases: DNA pull-down/immunoblot
[1] = target: ZBTB48 endogenous (U2OS nuclear extract) (Homo sapiens (U2OS cells)) (UniProt P10074); details: Pull-down: 150 mM NaCl, 50 mM Tris-HCl pH 7.5, 5 mM MgCl2, 0.5% Igepal CA-630, 1 mM DTT, 20 ug salmon sperm DNA, 4 C 2 h; protein in an extract; label: desthiobiotin-dATP
FLAG-ZBTB48 ZnF10 mutant = FLAG-ZBTB48 ZnF10 mutant (UniProt P10074); details: Pull-down: 150 mM NaCl, 50 mM Tris-HCl pH 7.5, 5 mM MgCl2, 0.5% Igepal CA-630, 1 mM DTT, 20 ug salmon sperm DNA, 4 C 2 h; protein in a lysate after overexpression; residues 1-688; protein details: FLAG; label: desthiobiotin-dATP
FLAG-ZBTB48 WT = FLAG-ZBTB48 WT (UniProt P10074); details: Pull-down: 150 mM NaCl, 50 mM Tris-HCl pH 7.5, 5 mM MgCl2, 0.5% Igepal CA-630, 1 mM DTT, 20 ug salmon sperm DNA, 4 C 2 h; protein in a lysate after overexpression; residues 1-688; protein details: FLAG; label: desthiobiotin-dATP
[2] = target: ZBTB48 endogenous (SUDHL4 nuclear extract) (Homo sapiens (SUDHL4 cells)) (UniProt P10074); details: Pull-down: 150 mM NaCl, 50 mM Tris-HCl pH 7.5, 5 mM MgCl2, 0.5% Igepal CA-630, 1 mM DTT, 20 ug salmon sperm DNA, 4 C 2 h; protein in an extract; label: desthiobiotin-dATP
FLAG-ZBTB48 R611A/R614A = FLAG-ZBTB48 R611A/R614A (UniProt P10074); details: Pull-down: 150 mM NaCl, 50 mM Tris-HCl pH 7.5, 5 mM MgCl2, 0.5% Igepal CA-630, 1 mM DTT, 20 ug salmon sperm DNA, 4 C 2 h; protein in a lysate after overexpression; residues 1-688; protein details: FLAG; label: desthiobiotin-dATP
FLAG-ZBTB48 ZnF11 mutant = FLAG-ZBTB48 ZnF11 mutant (UniProt P10074); details: Pull-down: 150 mM NaCl, 50 mM Tris-HCl pH 7.5, 5 mM MgCl2, 0.5% Igepal CA-630, 1 mM DTT, 20 ug salmon sperm DNA, 4 C 2 h; protein in a lysate after overexpression; residues 1-688; protein details: FLAG; label: desthiobiotin-dATP
FLAG-ZBTB48 R614A = FLAG-ZBTB48 R614A (UniProt P10074); details: Pull-down: 150 mM NaCl, 50 mM Tris-HCl pH 7.5, 5 mM MgCl2, 0.5% Igepal CA-630, 1 mM DTT, 20 ug salmon sperm DNA, 4 C 2 h; protein in a lysate after overexpression; residues 1-688; protein details: FLAG; label: desthiobiotin-dATP
[3] = target: FLAG-ZBTB48 delta ZnF1-9 + ZnF11 mutant (UniProt P10074); details: Pull-down: 150 mM NaCl, 50 mM Tris-HCl pH 7.5, 5 mM MgCl2, 0.5% Igepal CA-630, 1 mM DTT, 20 ug salmon sperm DNA, 4 C 2 h; protein in a lysate after overexpression; protein details: FLAG; label: desthiobiotin-dATP
[4] = target: FLAG-ZBTB48 delta ZnF1-9 + ZnF10 mutant (UniProt P10074); details: Pull-down: 150 mM NaCl, 50 mM Tris-HCl pH 7.5, 5 mM MgCl2, 0.5% Igepal CA-630, 1 mM DTT, 20 ug salmon sperm DNA, 4 C 2 h; protein in a lysate after overexpression; protein details: FLAG; label: desthiobiotin-dATP
FLAG-ZBTB48 ZnF5 mutant = FLAG-ZBTB48 ZnF5 mutant (UniProt P10074); details: Pull-down: 150 mM NaCl, 50 mM Tris-HCl pH 7.5, 5 mM MgCl2, 0.5% Igepal CA-630, 1 mM DTT, 20 ug salmon sperm DNA, 4 C 2 h; protein in a lysate after overexpression; residues 1-688; protein details: FLAG; label: desthiobiotin-dATP
FLAG-ZBTB48 ZnF9 mutant = FLAG-ZBTB48 ZnF9 mutant (UniProt P10074); details: Pull-down: 150 mM NaCl, 50 mM Tris-HCl pH 7.5, 5 mM MgCl2, 0.5% Igepal CA-630, 1 mM DTT, 20 ug salmon sperm DNA, 4 C 2 h; protein in a lysate after overexpression; residues 1-688; protein details: FLAG; label: desthiobiotin-dATP
FLAG-ZBTB48 ZnF4 mutant = FLAG-ZBTB48 ZnF4 mutant (UniProt P10074); details: Pull-down: 150 mM NaCl, 50 mM Tris-HCl pH 7.5, 5 mM MgCl2, 0.5% Igepal CA-630, 1 mM DTT, 20 ug salmon sperm DNA, 4 C 2 h; protein in a lysate after overexpression; residues 1-688; protein details: FLAG; label: desthiobiotin-dATP
FLAG-ZBTB48 ZnF8 mutant = FLAG-ZBTB48 ZnF8 mutant (UniProt P10074); details: Pull-down: 150 mM NaCl, 50 mM Tris-HCl pH 7.5, 5 mM MgCl2, 0.5% Igepal CA-630, 1 mM DTT, 20 ug salmon sperm DNA, 4 C 2 h; protein in a lysate after overexpression; residues 1-688; protein details: FLAG; label: desthiobiotin-dATP
FLAG-ZBTB48 ZnF1 mutant = FLAG-ZBTB48 ZnF1 mutant (UniProt P10074); details: Pull-down: 150 mM NaCl, 50 mM Tris-HCl pH 7.5, 5 mM MgCl2, 0.5% Igepal CA-630, 1 mM DTT, 20 ug salmon sperm DNA, 4 C 2 h; protein in a lysate after overexpression; residues 1-688; protein details: FLAG; label: desthiobiotin-dATP
FLAG-ZBTB48 ZnF6 mutant = FLAG-ZBTB48 ZnF6 mutant (UniProt P10074); details: Pull-down: 150 mM NaCl, 50 mM Tris-HCl pH 7.5, 5 mM MgCl2, 0.5% Igepal CA-630, 1 mM DTT, 20 ug salmon sperm DNA, 4 C 2 h; protein in a lysate after overexpression; residues 1-688; protein details: FLAG; label: desthiobiotin-dATP
FLAG-ZBTB48 ZnF3 mutant = FLAG-ZBTB48 ZnF3 mutant (UniProt P10074); details: Pull-down: 150 mM NaCl, 50 mM Tris-HCl pH 7.5, 5 mM MgCl2, 0.5% Igepal CA-630, 1 mM DTT, 20 ug salmon sperm DNA, 4 C 2 h; protein in a lysate after overexpression; residues 1-688; protein details: FLAG; label: desthiobiotin-dATP
FLAG-ZBTB48 ZnF7 mutant = FLAG-ZBTB48 ZnF7 mutant (UniProt P10074); details: Pull-down: 150 mM NaCl, 50 mM Tris-HCl pH 7.5, 5 mM MgCl2, 0.5% Igepal CA-630, 1 mM DTT, 20 ug salmon sperm DNA, 4 C 2 h; protein in a lysate after overexpression; residues 1-688; protein details: FLAG; label: desthiobiotin-dATP
FLAG-ZBTB48 R611A = FLAG-ZBTB48 R611A (UniProt P10074); details: Pull-down: 150 mM NaCl, 50 mM Tris-HCl pH 7.5, 5 mM MgCl2, 0.5% Igepal CA-630, 1 mM DTT, 20 ug salmon sperm DNA, 4 C 2 h; protein in a lysate after overexpression; residues 1-688; protein details: FLAG; label: desthiobiotin-dATP

Sequence | binding result [1] | binding result (FLAG-ZBTB48 ZnF10 mutant) | binding result (FLAG-ZBTB48 WT) | binding result [2] | binding result (FLAG-ZBTB48 R611A/R614A) | binding result (FLAG-ZBTB48 ZnF11 mutant) | binding result [3] | other results
TTAATTTCAGAGGTGTGGGGAGGGCTTAAGGTTAATTTCAGAGGTGTGGGGAGGGCTTAAGG / AACCTTAAGCCCTCCCCACACCTCTGAAATTAACCTTAAGCCCTCCCCACACCTCTGAAATT [CIITA pIII probe a] | no binding | – | – | – | – | – | – | –
TTAGAGGGTGTTCAGAAACAGAAATCTGACCGCTTGGG / AACCCAAGCGGTCAGATTTCTGTTTCTGAACACCCTCT [CIITA pIII probe c] | no binding | – | – | – | – | – | – | –
TTAGGGTTAGGGTTAGGGTTAGGGTTAGGGTTAGGGTTAGGGTTAGGGTTAGGGTTAGGG / AACCCTAACCCTAACCCTAACCCTAACCCTAACCCTAACCCTAACCCTAACCCTAACCCT [telomeric TTAGGG] | binds | binds | binds | binds | no binding | no binding | no binding | binding result (FLAG-ZBTB48 R614A): binds more weakly
TTCCCCCAACAGACTTTCTGTGCAACTTTCTGTCTTCACCAAATTCAGTCCACAGTAAGG / AACCTTACTGTGGACTGAATTTGGTGAAGACAGAAAGTTGCACAGAAAGTCTGTTGGGGG [CIITA pIII probe 1] | no binding | – | – | – | – | – | – | –
TTGATGATCCCTCACTTGATGATCCCTCACTTGATGATCCCTCACTTGATGATCCCTCAC / AAGTGAGGGATCATCAAGTGAGGGATCATCAAGTGAGGGATCATCAAGTGAGGGATCATC [CIITA pIII probe e.2 (ARE-2; listed as f.2 in Dataset EV5)] | binds | no binding | binds | binds | no binding | no binding | no binding | binding result [4]: no binding; binding result (FLAG-ZBTB48 ZnF5 mutant): binds; binding result (FLAG-ZBTB48 ZnF9 mutant): binds; binding result (FLAG-ZBTB48 ZnF4 mutant): binds; binding result (FLAG-ZBTB48 ZnF8 mutant): binds; binding result (FLAG-ZBTB48 ZnF1 mutant): binds; binding result (FLAG-ZBTB48 ZnF6 mutant): binds; binding result (FLAG-ZBTB48 ZnF3 mutant): binds; binding result (FLAG-ZBTB48 ZnF7 mutant): binds; binding result (FLAG-ZBTB48 R611A): binds more weakly
TTGTTTCTTTGCATGTTGGCTTAGCTTGGCTTGTTTCTTTGCATGTTGGCTTAGCTTGGC / AAGCCAAGCTAAGCCAACATGCAAAGAAACAAGCCAAGCTAAGCCAACATGCAAAGAAAC [CIITA pIII probe f (listed as g in Dataset EV5)] | no binding | – | – | – | – | – | – | –
